Results from PubChem BioAssay (NCATS).
Inconclusive results, whose numbers are uncertain, are shown with a selection of clear calls. Potencies of inconclusive entries are doubtful fits and often do not repeat. Calls of active or inactive are those of the source. The call rests on the fitted dose curve; in most records, active means well fitted cell-killing curve with a large enough effect; inconclusive means small, poorly fitted or top-dose-only effect, or effect the other way; inactive means no such curve, though single readings can be large or run the other way.

Experiment: Quantitative High-Throughput drug screen in 47 multiple myeloma cell lines against the NCATS MIPE library collection: ARP1_JJKsccF8 cell viability assay (AID 1918928; further: nearly all actives have a fitted effect of over 40% in size)
Settings: ARP1 myeloma cells viability, CellTiter-Glo ATP, 48 h; viability: at 45.8 µM (top of the series)
In short: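 Viability screen: myeloma cells (500/well) incubated 48 h at 37 °C, humidified 5% CO2, with pinned library compounds; CellTiter-Glo added, luminescence read; DMSO wells set 100%, medium-only wells 0%.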
Potency means the concentration at half of the fitted maximal effect.

Compound	Potency
CCOC(=O)C(C)Oc1cccc2c(=O)n(CC(=O)Nc3ccc4c(c3)OCCO4)ccc12 (centres undefined)	inconclusive: 33.2 µM [cytotoxic, single point]
C[C@]12CCC(=O)C=C1CC[C@@H]1[C@H]2[C@@H](O)C[C@@]2(C)[C@H]1CC[C@]2(O)C(=O)CO	inconclusive: 0.0935 µM [cytotoxic, full curve, poor fit]
Clc1cccc(Cl)c1NC1=NCCN1	inactive
Cc1[nH]c(C=C2C(=O)Nc3ccc(S(=O)(=O)N(C)c4cccc(Cl)c4)cc32)c(C)c1C(=O)N1CCN(C)CC1	active: 23.5 µM
COc1cccc(Nc2c(C(N)=O)cnc3c(C)cc(S(=O)(=O)c4cccc(C(=O)N(C)C)c4)cc23)c1	inconclusive: 12.9 µM [cytotoxic, single point]
N=C(N)c1ccc2cc(OC(=O)c3ccc(N=C(N)N)cc3)ccc2c1	inconclusive: 26.4 µM [cytotoxic, partial curve, poor fit]
COc1cc2ncn(-c3cc(OCc4ccccc4S(C)(=O)=O)c(C#N)s3)c2cc1OC	inactive
CCC(=O)NCC[C@@H]1CCc2ccc3c(c21)CCO3	inconclusive: 29.6 µM [cytotoxic, partial curve, poor fit]
CC(=O)Nc1cccc(-n2c(=O)n(C3CC3)c(=O)c3c(Nc4ccc(I)cc4F)n(C)c(=O)c(C)c32)c1	inactive
CC(c1cc2ccccc2s1)N(O)C(N)=O (centres undefined)	inactive
COc1cc(-c2nn(C3CCC(N4CCN(C(C)=O)CC4)CC3)c3ncnc(N)c23)ccc1NC(=O)c1cc2ccccc2n1C (centres undefined)	inconclusive: 5.26 µM [cytotoxic, full curve]
CCCCN(CCCC)CC(O)c1cc(Cl)cc2c1-c1ccc(Cl)cc1C2=Cc1ccc(Cl)cc1 (centres undefined)	inconclusive: 29.6 µM [cytotoxic, single point]
CCCCC(=O)O[C@]1(C(=O)CO)[C@@H](C)C[C@H]2[C@@H]3CCC4=CC(=O)C=C[C@]4(C)[C@@]3(F)[C@@H](O)C[C@@]21C	inconclusive: 0.0166 µM [cytotoxic, full curve]
CCCCOCCOc1nc(-c2ccc(C(=O)O)c(F)c2)sc1C	inconclusive: 0.001 µM
